Measurements from paper PMC10762670.
Where a chain is given by its changes, count along the chain named. Results are given in words; binding and its absence hold for the method and conditions named. Binding seen in cells or lysates may run through a third protein. Some results given as binding are weak or reduced against the parent protein; the word gives no strength. Tags and fused reporters may be left off the sequences shown.

Tests used:
[1] = biological target: T1, FLAG-tagged RBM42-A438T (patient missense variant c.1312G>A, p.A438T) (human) (UniProt Q9BTD8); test: co-IP; 293T cells transfected with 2.5 ug DNA of FLAG-tagged RBM42, 48 h; NETN lysis buffer (250 mmol/L NaCl, 5 mmol/L EDTA, 50 mmol/L Tris-HCl, 0.5% NP40); 1 ug FLAG antibody overnight at 4°C, Protein A/G Plus-Agarose; immunoblot for endogenous hnRNP K
T1 sequence: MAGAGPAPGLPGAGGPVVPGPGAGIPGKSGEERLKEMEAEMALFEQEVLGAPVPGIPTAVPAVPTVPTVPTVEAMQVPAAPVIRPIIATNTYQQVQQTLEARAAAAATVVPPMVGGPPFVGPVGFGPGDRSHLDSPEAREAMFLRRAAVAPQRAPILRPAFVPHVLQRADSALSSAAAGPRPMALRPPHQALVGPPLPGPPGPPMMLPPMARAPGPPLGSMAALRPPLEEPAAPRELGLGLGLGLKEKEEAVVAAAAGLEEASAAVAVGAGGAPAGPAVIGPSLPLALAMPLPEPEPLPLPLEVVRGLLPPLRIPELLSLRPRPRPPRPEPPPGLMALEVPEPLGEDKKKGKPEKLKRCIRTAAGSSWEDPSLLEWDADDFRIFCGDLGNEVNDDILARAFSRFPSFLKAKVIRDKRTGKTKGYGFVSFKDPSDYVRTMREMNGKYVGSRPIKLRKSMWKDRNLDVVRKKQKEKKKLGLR

[2] = biological target: T2, FLAG-tagged RBM42-WT (RNA-binding motif protein 42, wild type) (human) (UniProt Q9BTD8); test: as above
T2 sequence: T1 sequence with T438A

## hnRNP K (heterogeneous nuclear ribonucleoprotein K) (from UniProt P61978 1-463)
[1]
  binding: binds
[2]
  binding: binds
